# Measured values taken from the supplement of paper PMC12819154, “High-throughput peptide-centric local stability assay extends protein–ligand identification to membrane proteins, tissues and bacteria” (Nature Structural & Molecular Biology, 2025).
# Protein sequences, listed by entry. Tags and fused reporters are not part of them. Lines headed by an entry give the natural chain unless they say otherwise; changes in a name come on top.
# UniProt P78067: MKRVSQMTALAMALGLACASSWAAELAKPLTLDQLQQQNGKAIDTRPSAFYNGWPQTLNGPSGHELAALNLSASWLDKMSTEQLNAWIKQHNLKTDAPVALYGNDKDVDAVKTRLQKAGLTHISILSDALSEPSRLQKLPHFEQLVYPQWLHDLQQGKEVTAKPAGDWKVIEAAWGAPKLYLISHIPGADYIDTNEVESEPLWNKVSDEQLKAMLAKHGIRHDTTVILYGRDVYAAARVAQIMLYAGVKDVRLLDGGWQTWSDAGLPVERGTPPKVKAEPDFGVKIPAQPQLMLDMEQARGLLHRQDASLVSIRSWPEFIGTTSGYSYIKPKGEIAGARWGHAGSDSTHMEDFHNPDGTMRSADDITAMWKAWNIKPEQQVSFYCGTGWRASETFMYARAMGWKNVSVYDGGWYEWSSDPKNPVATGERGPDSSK
# UniProt Q46807: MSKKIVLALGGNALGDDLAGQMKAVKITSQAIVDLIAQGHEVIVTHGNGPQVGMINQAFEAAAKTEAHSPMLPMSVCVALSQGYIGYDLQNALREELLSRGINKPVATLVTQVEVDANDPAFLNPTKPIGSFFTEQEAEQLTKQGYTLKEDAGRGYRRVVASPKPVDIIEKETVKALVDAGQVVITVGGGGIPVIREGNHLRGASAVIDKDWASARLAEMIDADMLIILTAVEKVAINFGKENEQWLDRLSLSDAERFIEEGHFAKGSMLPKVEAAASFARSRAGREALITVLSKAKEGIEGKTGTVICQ
# UniProt Q46907: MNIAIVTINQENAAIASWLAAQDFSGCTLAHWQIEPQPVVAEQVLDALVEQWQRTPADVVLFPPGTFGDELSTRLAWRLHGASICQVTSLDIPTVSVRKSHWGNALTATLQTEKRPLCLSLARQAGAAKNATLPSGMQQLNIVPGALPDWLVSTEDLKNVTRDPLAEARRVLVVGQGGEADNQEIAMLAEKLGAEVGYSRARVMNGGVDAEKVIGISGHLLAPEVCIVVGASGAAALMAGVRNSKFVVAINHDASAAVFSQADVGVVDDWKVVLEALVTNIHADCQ
# UniProt Q46888: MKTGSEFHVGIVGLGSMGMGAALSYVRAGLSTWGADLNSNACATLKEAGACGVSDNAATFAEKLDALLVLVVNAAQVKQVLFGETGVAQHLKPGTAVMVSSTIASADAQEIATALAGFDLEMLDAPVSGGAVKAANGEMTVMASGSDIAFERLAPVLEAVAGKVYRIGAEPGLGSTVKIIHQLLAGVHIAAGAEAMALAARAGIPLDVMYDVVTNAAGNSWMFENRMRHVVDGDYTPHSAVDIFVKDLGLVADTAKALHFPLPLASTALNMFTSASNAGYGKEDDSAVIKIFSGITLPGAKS
# UniProt Q46799: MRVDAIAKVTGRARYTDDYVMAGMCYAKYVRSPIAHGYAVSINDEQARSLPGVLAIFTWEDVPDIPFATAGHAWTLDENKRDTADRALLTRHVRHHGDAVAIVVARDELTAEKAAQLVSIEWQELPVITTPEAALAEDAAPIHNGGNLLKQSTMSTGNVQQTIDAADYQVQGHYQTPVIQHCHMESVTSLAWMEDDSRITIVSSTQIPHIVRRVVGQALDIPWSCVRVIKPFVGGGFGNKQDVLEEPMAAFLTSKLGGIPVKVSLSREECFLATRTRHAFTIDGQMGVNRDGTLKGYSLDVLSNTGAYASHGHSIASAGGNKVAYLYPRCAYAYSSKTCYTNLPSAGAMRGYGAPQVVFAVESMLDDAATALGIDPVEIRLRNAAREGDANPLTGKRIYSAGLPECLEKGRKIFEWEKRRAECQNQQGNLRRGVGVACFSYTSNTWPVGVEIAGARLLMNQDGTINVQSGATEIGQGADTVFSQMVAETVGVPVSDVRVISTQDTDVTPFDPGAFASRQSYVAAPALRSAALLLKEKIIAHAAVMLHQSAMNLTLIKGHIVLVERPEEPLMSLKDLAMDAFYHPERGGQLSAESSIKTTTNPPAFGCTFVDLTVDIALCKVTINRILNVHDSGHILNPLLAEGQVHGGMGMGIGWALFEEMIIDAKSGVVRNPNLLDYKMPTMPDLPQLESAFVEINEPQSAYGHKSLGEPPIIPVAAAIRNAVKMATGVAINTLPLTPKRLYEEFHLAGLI
# UniProt Q47274: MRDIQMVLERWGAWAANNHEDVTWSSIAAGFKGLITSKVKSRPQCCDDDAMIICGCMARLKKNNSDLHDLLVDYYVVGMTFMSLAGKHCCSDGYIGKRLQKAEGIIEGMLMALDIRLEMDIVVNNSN
# UniProt Q2M7X4: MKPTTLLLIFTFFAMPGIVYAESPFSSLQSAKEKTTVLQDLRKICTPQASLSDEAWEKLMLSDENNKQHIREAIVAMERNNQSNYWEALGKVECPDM
# UniProt P77712: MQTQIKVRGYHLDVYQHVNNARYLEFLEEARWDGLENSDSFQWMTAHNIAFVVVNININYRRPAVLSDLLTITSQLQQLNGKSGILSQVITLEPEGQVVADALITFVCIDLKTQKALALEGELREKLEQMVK
# UniProt Q6BF16: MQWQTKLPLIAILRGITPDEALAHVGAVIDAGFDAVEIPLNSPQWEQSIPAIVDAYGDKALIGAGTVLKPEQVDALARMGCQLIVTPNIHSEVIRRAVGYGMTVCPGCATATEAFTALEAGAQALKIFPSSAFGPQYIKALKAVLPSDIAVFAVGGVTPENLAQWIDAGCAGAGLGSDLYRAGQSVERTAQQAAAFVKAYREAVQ
# UniProt Q46802: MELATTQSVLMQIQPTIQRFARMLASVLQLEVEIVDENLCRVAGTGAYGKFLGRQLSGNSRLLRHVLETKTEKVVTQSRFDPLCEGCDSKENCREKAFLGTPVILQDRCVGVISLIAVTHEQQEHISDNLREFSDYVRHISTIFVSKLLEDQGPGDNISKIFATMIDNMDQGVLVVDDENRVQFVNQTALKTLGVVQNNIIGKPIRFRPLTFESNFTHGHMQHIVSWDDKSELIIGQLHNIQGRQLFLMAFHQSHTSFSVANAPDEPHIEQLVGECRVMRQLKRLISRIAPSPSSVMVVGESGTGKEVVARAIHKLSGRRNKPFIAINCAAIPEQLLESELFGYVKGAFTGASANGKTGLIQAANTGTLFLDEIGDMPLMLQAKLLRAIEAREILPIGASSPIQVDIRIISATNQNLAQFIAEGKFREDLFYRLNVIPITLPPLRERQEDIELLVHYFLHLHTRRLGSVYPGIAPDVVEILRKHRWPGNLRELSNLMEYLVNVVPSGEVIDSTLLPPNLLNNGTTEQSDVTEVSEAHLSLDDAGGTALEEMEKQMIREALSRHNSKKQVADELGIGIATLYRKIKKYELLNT
# UniProt Q46829: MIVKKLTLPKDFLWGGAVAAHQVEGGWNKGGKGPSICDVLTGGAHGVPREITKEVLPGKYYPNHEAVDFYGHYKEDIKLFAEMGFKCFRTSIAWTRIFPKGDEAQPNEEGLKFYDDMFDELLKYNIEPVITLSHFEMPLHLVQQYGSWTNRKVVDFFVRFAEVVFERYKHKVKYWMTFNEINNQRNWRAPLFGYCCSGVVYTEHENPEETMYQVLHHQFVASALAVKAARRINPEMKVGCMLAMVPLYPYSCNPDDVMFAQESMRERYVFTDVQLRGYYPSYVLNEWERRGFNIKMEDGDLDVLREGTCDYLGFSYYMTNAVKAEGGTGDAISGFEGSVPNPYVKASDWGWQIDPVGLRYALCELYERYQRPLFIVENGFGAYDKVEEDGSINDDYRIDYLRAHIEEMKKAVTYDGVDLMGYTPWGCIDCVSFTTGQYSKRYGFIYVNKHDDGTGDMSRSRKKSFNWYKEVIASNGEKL
# UniProt P77744: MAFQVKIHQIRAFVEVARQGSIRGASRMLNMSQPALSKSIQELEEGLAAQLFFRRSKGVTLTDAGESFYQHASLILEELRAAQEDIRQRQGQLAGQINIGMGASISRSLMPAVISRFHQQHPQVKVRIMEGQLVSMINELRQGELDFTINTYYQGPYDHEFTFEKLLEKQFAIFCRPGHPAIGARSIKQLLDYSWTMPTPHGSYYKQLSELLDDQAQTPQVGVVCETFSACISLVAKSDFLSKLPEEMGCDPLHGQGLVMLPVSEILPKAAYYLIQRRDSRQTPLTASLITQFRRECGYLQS
# UniProt P77700: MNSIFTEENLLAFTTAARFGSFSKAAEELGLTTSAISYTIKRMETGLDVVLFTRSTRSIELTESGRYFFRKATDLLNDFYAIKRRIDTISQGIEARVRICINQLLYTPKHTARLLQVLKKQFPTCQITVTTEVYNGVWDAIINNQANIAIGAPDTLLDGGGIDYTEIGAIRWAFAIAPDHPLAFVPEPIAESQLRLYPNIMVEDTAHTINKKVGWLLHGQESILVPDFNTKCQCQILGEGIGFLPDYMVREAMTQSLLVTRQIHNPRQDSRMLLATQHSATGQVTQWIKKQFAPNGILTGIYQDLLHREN
# UniProt Q46925: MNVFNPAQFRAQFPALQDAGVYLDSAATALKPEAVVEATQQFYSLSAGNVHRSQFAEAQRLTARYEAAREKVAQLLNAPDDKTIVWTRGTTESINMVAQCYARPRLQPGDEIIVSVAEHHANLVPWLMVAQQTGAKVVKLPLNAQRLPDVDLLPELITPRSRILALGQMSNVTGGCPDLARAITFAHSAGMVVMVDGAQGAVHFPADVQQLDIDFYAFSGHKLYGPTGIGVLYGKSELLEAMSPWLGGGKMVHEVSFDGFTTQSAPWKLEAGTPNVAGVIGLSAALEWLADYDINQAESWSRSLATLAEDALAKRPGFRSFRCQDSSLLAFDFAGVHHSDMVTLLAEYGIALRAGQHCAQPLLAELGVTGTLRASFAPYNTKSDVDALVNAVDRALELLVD
# UniProt Q47688: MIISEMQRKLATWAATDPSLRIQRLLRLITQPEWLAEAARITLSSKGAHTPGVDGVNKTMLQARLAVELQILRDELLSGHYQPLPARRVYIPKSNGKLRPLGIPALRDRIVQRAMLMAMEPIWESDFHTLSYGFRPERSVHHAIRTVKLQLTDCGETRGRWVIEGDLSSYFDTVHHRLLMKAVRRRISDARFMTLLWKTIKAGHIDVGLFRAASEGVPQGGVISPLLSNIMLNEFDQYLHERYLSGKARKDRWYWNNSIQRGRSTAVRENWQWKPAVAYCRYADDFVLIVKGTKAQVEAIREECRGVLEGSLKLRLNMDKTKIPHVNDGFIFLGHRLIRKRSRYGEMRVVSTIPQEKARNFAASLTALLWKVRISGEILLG
# UniProt Q46801: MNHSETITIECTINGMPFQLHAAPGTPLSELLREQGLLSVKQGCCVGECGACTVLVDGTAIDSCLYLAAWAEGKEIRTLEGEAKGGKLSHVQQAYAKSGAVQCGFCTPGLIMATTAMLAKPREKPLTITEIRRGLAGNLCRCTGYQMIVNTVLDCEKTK
# UniProt P77690: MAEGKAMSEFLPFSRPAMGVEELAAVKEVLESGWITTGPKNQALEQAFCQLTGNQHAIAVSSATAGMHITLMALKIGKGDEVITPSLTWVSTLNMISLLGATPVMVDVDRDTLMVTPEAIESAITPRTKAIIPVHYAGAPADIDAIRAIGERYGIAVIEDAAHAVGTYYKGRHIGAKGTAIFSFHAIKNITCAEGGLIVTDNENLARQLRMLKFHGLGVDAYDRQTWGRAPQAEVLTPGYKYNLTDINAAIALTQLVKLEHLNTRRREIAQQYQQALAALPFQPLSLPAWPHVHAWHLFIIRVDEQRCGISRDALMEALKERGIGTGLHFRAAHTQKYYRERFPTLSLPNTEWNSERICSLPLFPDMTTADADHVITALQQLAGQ
# UniProt P77775: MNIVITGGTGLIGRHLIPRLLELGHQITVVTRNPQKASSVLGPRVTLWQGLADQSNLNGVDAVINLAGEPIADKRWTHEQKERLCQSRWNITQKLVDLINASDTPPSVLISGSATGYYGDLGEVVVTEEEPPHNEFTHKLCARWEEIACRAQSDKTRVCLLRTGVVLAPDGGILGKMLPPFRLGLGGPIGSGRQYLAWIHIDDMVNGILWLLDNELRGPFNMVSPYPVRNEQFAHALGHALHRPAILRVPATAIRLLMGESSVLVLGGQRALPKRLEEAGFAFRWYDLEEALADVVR
# UniProt Q46856: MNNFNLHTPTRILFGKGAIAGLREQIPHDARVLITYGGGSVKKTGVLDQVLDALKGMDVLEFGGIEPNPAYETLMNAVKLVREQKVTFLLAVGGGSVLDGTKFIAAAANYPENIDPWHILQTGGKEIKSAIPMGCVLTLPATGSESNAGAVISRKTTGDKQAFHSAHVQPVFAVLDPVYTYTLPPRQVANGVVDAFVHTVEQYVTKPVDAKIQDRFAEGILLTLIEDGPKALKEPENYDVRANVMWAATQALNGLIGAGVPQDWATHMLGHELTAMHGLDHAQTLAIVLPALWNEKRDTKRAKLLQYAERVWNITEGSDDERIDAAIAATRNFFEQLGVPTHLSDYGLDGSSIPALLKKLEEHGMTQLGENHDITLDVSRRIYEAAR
# UniProt P77790: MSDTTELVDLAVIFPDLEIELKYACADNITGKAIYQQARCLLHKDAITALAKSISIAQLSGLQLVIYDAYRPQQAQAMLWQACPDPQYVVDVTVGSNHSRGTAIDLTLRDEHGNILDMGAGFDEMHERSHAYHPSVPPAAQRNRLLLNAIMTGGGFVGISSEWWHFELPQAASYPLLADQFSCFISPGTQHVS
# The other results are listed elsewhere or left out. Most values lie at the level of the controls, where differences are scatter.
# Compound: CC1(C)S[C@@H]2[C@H](NC(=O)[C@H](N)c3ccccc3)C(=O)N2[C@H]1C(=O)O [ampicillin]
# Assay: log2 fold change of tryptic peptide abundance, ligand vs vehicle (limited proteolysis) (log2 ratio); higher = more trypsin-susceptible (destabilized)
# Conditions: ligand concentration: 10 uM; sample: E. coli crude lysate
row,Target,log2 fold change
1,"UniProt Q46855 (peptide sequence: LLYGETPFAR, peptide start residue: 52)",-0.121
2,"UniProt P78067 (peptide sequence: SADDITAMWK, peptide start residue: 362)",-0.276
3,"UniProt Q46807 (peptide sequence: EALITVLSK, peptide start residue: 287)",0.366
4,"UniProt Q46907 (peptide sequence: LGAEVGYSR, peptide start residue: 192)",-0.631
5,"UniProt Q46888 (peptide sequence: IGAEPGLGSTVK, peptide start residue: 167)",0.0662
6,"UniProt Q46799 (peptide sequence: DLAMDAFYHPER, peptide start residue: 575)",-0.33
7,"UniProt P77806 (peptide sequence: LAHHVAQGANQYAPMTGVQALR, peptide start residue: 52)",0.0665
8,"UniProt Q46864 (peptide sequence: CPVCHQGEMVSGIKDIPYTFR, peptide start residue: 3)",-0.269
9,"UniProt Q47274 (peptide sequence: DIQMVLER, peptide start residue: 3)",-0.384
10,"UniProt Q47150 (peptide sequence: EKALPFDLR, peptide start residue: 44)",-0.131
11,"UniProt Q46948 (peptide sequence: IIDLLVGR, peptide start residue: 168)",-0.272
12,"UniProt Q2M7X4 (peptide sequence: EAIVAMER, peptide start residue: 72)",-0.167
13,"UniProt Q46811 (peptide sequence: LDYDSALNIR, peptide start residue: 514)",-0.731
14,"UniProt P78061 (peptide sequence: FCHVYHACKNDELLQFER, peptide start residue: 441)",0.22
15,"UniProt Q46868 (peptide sequence: KQPDPETLPPTL, peptide start residue: 85)",-0.129
16,"UniProt P77712 (peptide sequence: GYHLDVYQHVNNAR, peptide start residue: 9)",0.0466
17,"UniProt Q6BF16 (peptide sequence: ALIGAGTVLKPEQVDALAR, peptide start residue: 60)",0.372

row,Target,log2 fold change
1,"UniProt Q46802 (peptide sequence: HISTIFVSK, peptide start residue: 139)",-0.141
2,"UniProt Q46829 (peptide sequence: GGKGPSICDVLTGGAHGVPR, peptide start residue: 30)",-0.459
3,"UniProt P77744 (peptide sequence: SLMPAVISR, peptide start residue: 108)",-0.405
4,"UniProt Q46836 (peptide sequence: SHCPHCQQTIR, peptide start residue: 64)",-0.423
5,"UniProt P77700 (peptide sequence: AAEELGLTTSAISYTIKR, peptide start residue: 25)",0.473
6,"UniProt Q46925 (peptide sequence: VAQLLNAPDDKTIVWTR, peptide start residue: 72)",0.112
7,"UniProt P77736 (peptide sequence: IILPAKPDLNCVTR, peptide start residue: 90)",0.258
8,"UniProt Q47688 (peptide sequence: LATWAATDPSLR, peptide start residue: 10)",0.136
9,"UniProt Q46801 (peptide sequence: LSHVQQAYAK, peptide start residue: 88)",-0.143
10,"UniProt Q46898 (peptide sequence: EDYRGLK, peptide start residue: 93)",-0.056
11,"UniProt P77690 (peptide sequence: APQAEVLTPGYK, peptide start residue: 230)",0.0894
12,"UniProt Q47156 (peptide sequence: SVNITELR, peptide start residue: 9)",-0.0969
13,"UniProt P77713 (peptide sequence: PLRLPGVPLLASGGR, peptide start residue: 268)",0.608
14,"UniProt Q46896 (peptide sequence: VYASGQPGGAR, peptide start residue: 85)",-0.245
15,"UniProt P77775 (peptide sequence: LGLGGPIGSGR, peptide start residue: 183)",-0.152
16,"UniProt Q46856 (peptide sequence: RIYEAAR, peptide start residue: 381)",-0.509
17,"UniProt P77790 (peptide sequence: YACADNITGK, peptide start residue: 23)",0.243

# Two entries picked at random from those above, as already listed:
row,Target,log2 fold change
2,"UniProt Q46829 (peptide sequence: GGKGPSICDVLTGGAHGVPR, peptide start residue: 30)",-0.459
15,"UniProt P77775 (peptide sequence: LGLGGPIGSGR, peptide start residue: 183)",-0.152
